Results taken from the supplement of paper PMC9233669.
Variants at the background level are over-represented here.

Key:
[1] = system: biotinyl-Trp-oxazolone; assay: self-aminoacylation, catalytic enhancement (BWO) (fold over background); higher = more active; k-Seq, kA / k0A0; sequences stand for … in GGGAAUGGAUCCACAUCUACGAAUUC…UUCACUGCAGACUUGACGAAGCUG
Outline: (§1)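 Catalytic enhancement equals the median kA over the uncatalyzed rate, the latter read from the low-activity peak of a bimodal Gaussian fit. Values of kA came from fitting each sequence's fraction reacted to a pseudo-first-order model, with 1000 bootstraps. Reacted RNA was captured with streptavidin and quantified by triplicate qPCR and Illumina sequencing after 90 minutes at room temperature with 2–1250 μM biotinyl-aminoacyl-oxazolone and 0.43 μM mutagenized RNA pools bearing a 21-nt variable region.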

[2] = system: biotinyl-Leu-oxazolone; assay: self-aminoacylation, catalytic enhancement (BLO) (fold over background); higher = more active; k-Seq, kA / k0A0; sequences stand for … in GGGAAUGGAUCCACAUCUACGAAUUC…UUCACUGCAGACUUGACGAAGCUG
Outline: as §1

[3] = system: biotinyl-Val-oxazolone; assay: self-aminoacylation, catalytic enhancement (BVO) (fold over background); higher = more active; k-Seq, kA / k0A0; sequences stand for … in GGGAAUGGAUCCACAUCUACGAAUUC…UUCACUGCAGACUUGACGAAGCUG
Outline: as §1

[4] = system: biotinyl-Ile-oxazolone; assay: self-aminoacylation, catalytic enhancement (BIO) (fold over background); higher = more active; k-Seq, kA / k0A0; sequences stand for … in GGGAAUGGAUCCACAUCUACGAAUUC…UUCACUGCAGACUUGACGAAGCUG
Outline: as §1

[5] = system: biotinyl-Met-oxazolone; assay: self-aminoacylation, catalytic enhancement (BMO) (fold over background); higher = more active; k-Seq, kA / k0A0; sequences stand for … in GGGAAUGGAUCCACAUCUACGAAUUC…UUCACUGCAGACUUGACGAAGCUG
Outline: as §1

[6] = system: biotinyl-Phe-oxazolone; assay: self-aminoacylation, catalytic enhancement (BFO) (fold over background); higher = more active; k-Seq, kA / k0A0; sequences stand for … in GGGAAUGGAUCCACAUCUACGAAUUC…UUCACUGCAGACUUGACGAAGCUG
Outline: as §1

| Sequence | self-aminoacylation [1] | self-aminoacylation [2] | self-aminoacylation [3] | self-aminoacylation [4] | self-aminoacylation [5] | self-aminoacylation [6] |
| --- | --- | --- | --- | --- | --- | --- |
| AUUACCCUGGUCAACGAAUGA [Fam2.1 aminoacylation ribozyme variant] | 0.686 | 0.797 | 0.927 | 0.91 | 0.652 | 0.423 |
| AUUACCCUGGUCAGCGAGUGU [Fam2.1 aminoacylation ribozyme variant] | 4.47 | 3.85 | 2.41 | 2.49 | 3.7 | 15.4 |
| AUUACCCUGGUCAUAGAUUGA [Fam2.1 aminoacylation ribozyme variant] | 0.629 | 0.719 | 1.04 | 0.777 | 0.809 | 0.659 |
| AUUACCCUGGUCAUCCAGUGC [Fam2.1 aminoacylation ribozyme variant] | 1.89 | 2.19 | 1.71 | 1.59 | 1.65 | 5.75 |
| AUUACCCUGGUCAUCGACUCA [Fam2.1 aminoacylation ribozyme variant] | 0.472 | 0.503 | 0.608 | 0.596 | 0.51 | 0.552 |
| AUUACCCUGGUCAUCGACUGG [Fam2.1 aminoacylation ribozyme variant] | 1.69 | 0.997 | 0.708 | 0.746 | 0.524 | 0.639 |
| AUUACCCUGGUCAUCGAGCAA [Fam2.1 aminoacylation ribozyme variant] | 0.779 | 1.13 | 1.13 | 1.16 | 1.11 | 1.19 |
| AUUACCCUGGUCAUGGACUGA [Fam2.1 aminoacylation ribozyme variant] | 0.593 | 0.883 | 0.911 | 0.93 | 1.08 | 0.628 |
| AUUACCCUGGUCAUUGAAUGA [Fam2.1 aminoacylation ribozyme variant] | 0.557 | 0.773 | 0.831 | 0.911 | 0.834 | 1.09 |
| AUUACCCUGGUCAUUGAGUUA [Fam2.1 aminoacylation ribozyme variant] | 0.567 | 0.855 | 1.08 | 0.879 | 0.998 | 0.873 |
| AUUACCCUGGUCGUCGACUGA [Fam2.1 aminoacylation ribozyme variant] | 0.555 | 0.776 | 0.826 | 0.697 | 0.787 | 0.577 |
| AUUACCCUGGUCGUCGAGUUA [Fam2.1 aminoacylation ribozyme variant] | 0.786 | 0.953 | 0.988 | 1.16 | 0.987 | 0.846 |
| AUUACCCUGGUCGUUGAGUGA [Fam2.1 aminoacylation ribozyme variant] | 1.02 | 1.32 | 1.11 | 0.969 | 1.05 | 0.714 |
| AUUACCCUGGUCUUCGAGUAA [Fam2.1 aminoacylation ribozyme variant] | 0.723 | 1.15 | 1.22 | 1.22 | 1.14 | 0.72 |
| AUUACCCUGGUCUUCGAGUUA [Fam2.1 aminoacylation ribozyme variant] | 0.896 | 1.03 | 1.2 | 1.07 | 1.1 | 0.759 |
| AUUACCCUGGUGAUCGAGGGA [Fam2.1 aminoacylation ribozyme variant] | 1.47 | 1.21 | 1.32 | 1.23 | 1.73 | 0.823 |
| AUUACCCUGGUGAUUGAGUGA [Fam2.1 aminoacylation ribozyme variant] | 9.23 | 7.64 | 3.55 | 3.55 | 7.66 | 57.1 |
| AUUACCCUGGUUAUCGAGCGA [Fam2.1 aminoacylation ribozyme variant] | 1.19 | 1.4 | 1.02 | 1.02 | 0.97 | 0.773 |
| AUUACCCUGUUCAUCGAGUAA [Fam2.1 aminoacylation ribozyme variant] | 0.537 | 1.15 | 1.44 | 1.38 | 1.3 | 1.26 |
| AUUACCCUGUUCAUCGAGUGC [Fam2.1 aminoacylation ribozyme variant] | 0.949 | 0.936 | 0.955 | 0.827 | 0.904 | 0.779 |
| AUUACCGUGGUCAUCUAGUGA [Fam2.1 aminoacylation ribozyme variant] | 7.82 | 6.26 | 3.82 | 3.29 | 6.98 | 31.2 |
